Assay results as given in the supplement of paper PMC11348887.
Where a name gives a salt, the structure may show the parent alone. This is one part of the list. Most entries show no effect beyond the scatter of the controls. Where a SMILES comes first, the peptide text is derived from it. [ ]: non-standard residue; d: D form. pGlu = O=C1CC[C@@H](C(=O)O)N1; Thz = O=C(O)[C@@H]1CSCN1

tested on: hPSC-derived cortical neurons (WA09); experiment: nucleus area z-score vs screen plate; higher = larger nuclei (more mature); conditions: 5 µM; treatment: days 7-14 after plating, readout day 21

Row | SMILES | nucleus area z-score
1 | CC12CC3CC(C)(C1)CC(N)(C3)C2 [Memantine HCl] | -0.476
2 | O=[N+]([O-])c1ccc(O)c2ncccc12 [Nitroxoline] | 0.234
3 | CN1CCC(=C2c3ccccc3C=Cc3ccccc32)CC1 [Cyproheptadine HCl] | -2
4 | Cc1c(OCC(F)(F)F)ccnc1C[S@@+]([O-])c1nc2ccccc2[nH]1 [Dexlansoprazole] | -0.902
5 | O=C1Nc2ccc(Cl)cc2[C@@](C#CC2CC2)(C(F)(F)F)O1 [Efavirenz] | 0.58
6 | O=C1CC[C@@H](C(=O)N2CSC[C@H]2C(=O)O)N1 [Pidotimod] ([pGlu]-[Thz]-OH) | 0.0919

tested on: hPSC-derived cortical neurons (WA09); experiment: total neurite length per nucleus (MAP2) z-score; higher = more neurite growth; conditions: 5 µM; treatment: days 7-14 after plating, readout day 21

Row | SMILES | total neurite length per nucleus (z-score)
7 | CNC(=C[N+](=O)[O-])NCCSCc1csc(CN(C)C)n1 [Nizatidine] | 0.511
8 | C#C[C@]1(OC(C)=O)CC[C@H]2[C@@H]3CCC4=C[C@@H](OC(C)=O)CC[C@@H]4[C@H]3CC[C@@]21C [Ethynodiol diacetate] | 0.426
9 | C[C@@H](O[C@H]1OCCN(Cc2nn(P(=O)(O)O)c(=O)[nH]2)[C@H]1c1ccc(F)cc1)c1cc(C(F)(F)F)cc(C(F)(F)F)c1 [Fosaprepitant dimeglumine salt] | -1.23
10 | CCOP(=O)(OCC)C(=Cc1cc(C(C)(C)C)c(O)c(C(C)(C)C)c1)P(=O)(OCC)OCC | 0.297
11 | Nc1nc(=S)c2ncn([C@H]3C[C@H](O)[C@@H](CO)O3)c2[nH]1 | -0.376
12 | CN(C)S(=O)(=O)c1ccc2c(c1)/C(=C/c1cc3c([nH]1)CCCC3)C(=O)N2 | 0.238
13 | O=C(O)c1ccccc1C(=O)Nc1ccc(-c2ccccc2)cc1 [Kartogenin] | 0.463
14 | C[C@H](CS)C(=O)N1CCC[C@H]1C(=O)O [Captopril] | 0.0554
15 | CC[C@H]1OC(=O)[C@H](C)[C@@H](O[C@H]2C[C@@](C)(OC)[C@@H](O)[C@H](C)O2)[C@H](C)[C@@H](O[C@@H]2O[C@H](C)C[C@H](N(C)C)[C@H]2O)[C@](C)(O)C[C@@H](C)/C(=N\OCOCCOC)[C@H](C)[C@@H](O)[C@]1(C)O [Roxithromycin] | -0.0269
16 | N#CN=C(NCCCCCCOc1ccc(Cl)cc1)Nc1ccncc1 | -6.97
17 | Cc1c(C(=O)N2CCOc3ccc(-c4ccc(N)nc4)cc3C2)ccc(S(C)(=O)=O)c1F | -0.491
18 | COc1ccccc1OCC(O)CN1CCN(CC(=O)Nc2c(C)cccc2C)CC1 (stereo not given) [Ranolazine 2HCl] | -1.08
19 | Oc1ccc(C2CNCCc3c2cc(O)c(O)c3Cl)cc1 (stereo not given) [Fenoldopam mesylate] | -0.615
20 | COc1ccccc1N1CCN(CC(O)COc2cccc3ccccc23)CC1 (stereo not given) [Naftopidil] | 0.621
21 | CCCCN1CCCC[C@H]1C(=O)Nc1c(C)cccc1C [Levobupivacaine HCl] | 0.378
22 | Cc1nn(C)c(COc2ccc(N3CCN(S(=O)(=O)N(C)C)CC3)cc2)c1-c1cccc2c(CCCOc3cccc4ccccc34)c(C(=O)O)n(CCN3CCOCC3)c12 | 1.53
23 | O=C(NC[C@H](O)CO)c1ccncc1Nc1ccc(I)cc1F | -0.355
24 | COc1cc(OC)c2c(=O)[nH]c(-c3cc(C)c(OCCO)c(C)c3)nc2c1 | -0.296
25 | CC(C)C[C@H](NC(=O)[C@H]1O[C@@H]1C(=O)O)C(=O)NCCCCN=C(N)N | -3.2
26 | CN1CCN(C2CCN(C(=O)Nc3cc(Oc4ccc(NC(=O)C5(C(=O)Nc6ccc(F)cc6)CC5)c(F)c4)ccn3)CC2)CC1 [Golvatinib (E7050)] | -2.56

Twelve of these compounds in another layout:
Row,SMILES,total neurite length per nucleus (z-score)
9,C[C@@H](O[C@H]1OCCN(Cc2nn(P(=O)(O)O)c(=O)[nH]2)[C@H]1c1ccc(F)cc1)c1cc(C(F)(F)F)cc(C(F)(F)F)c1 [Fosaprepitant dimeglumine salt],-1.23
10,CCOP(=O)(OCC)C(=Cc1cc(C(C)(C)C)c(O)c(C(C)(C)C)c1)P(=O)(OCC)OCC,0.297
11,Nc1nc(=S)c2ncn([C@H]3C[C@H](O)[C@@H](CO)O3)c2[nH]1,-0.376
14,C[C@H](CS)C(=O)N1CCC[C@H]1C(=O)O [Captopril],0.0554
16,N#CN=C(NCCCCCCOc1ccc(Cl)cc1)Nc1ccncc1,-6.97
17,Cc1c(C(=O)N2CCOc3ccc(-c4ccc(N)nc4)cc3C2)ccc(S(C)(=O)=O)c1F,-0.491
18,COc1ccccc1OCC(O)CN1CCN(CC(=O)Nc2c(C)cccc2C)CC1 (stereo not given) [Ranolazine 2HCl],-1.08
19,Oc1ccc(C2CNCCc3c2cc(O)c(O)c3Cl)cc1 (stereo not given) [Fenoldopam mesylate],-0.615
21,CCCCN1CCCC[C@H]1C(=O)Nc1c(C)cccc1C [Levobupivacaine HCl],0.378
22,Cc1nn(C)c(COc2ccc(N3CCN(S(=O)(=O)N(C)C)CC3)cc2)c1-c1cccc2c(CCCOc3cccc4ccccc34)c(C(=O)O)n(CCN3CCOCC3)c12,1.53
23,O=C(NC[C@H](O)CO)c1ccncc1Nc1ccc(I)cc1F,-0.355
26,CN1CCN(C2CCN(C(=O)Nc3cc(Oc4ccc(NC(=O)C5(C(=O)Nc6ccc(F)cc6)CC5)c(F)c4)ccn3)CC2)CC1 [Golvatinib (E7050)],-2.56

(list continues)

Row | SMILES | total neurite length per nucleus (z-score)
27 | CC(C)c1cc(C(C)C)c(CC(=O)NS(=O)(=O)Oc2c(C(C)C)cccc2C(C)C)c(C(C)C)c1 [Avasimibe] | 0.289
28 | CS(=O)(=O)c1cccc(CNc2nc(Nc3ccc4c(c3)CCC(=O)N4)ncc2C(F)(F)F)c1 | -0.794
29 | CN(C)C/C=C/C(=O)Nc1cc2c(Nc3ccc(F)c(Cl)c3)ncnc2cc1O[C@H]1CCOC1 [Afatinib (BIBW2992)] | -2.08
30 | Nc1nc2[nH]cc(CCc3ccc(C(=O)N[C@@H](CCC(=O)O)C(=O)O)cc3)c2c(=O)[nH]1 [Pemetrexed] | 1.12
31 | O=c1c2ccccc2nc2n1CCc1c-2[nH]c2ccccc12 [Rutaecarpine] | 0.417
32 | CCN(CC)C(=O)c1cccc(C)c1 | 0.817
33 | NC(=O)c1ncn([C@@H]2O[C@H](CO)[C@@H](O)[C@H]2O)n1 [Ribavirin] | -0.15
34 | CC(C)(C(=O)O)c1ccc(C(O)CCCN2CCC(C(O)(c3ccccc3)c3ccccc3)CC2)cc1 (stereo not given) [Fexofenadine HCl] | -0.0971
35 | COc1cc2c(cc1OC)CC(=O)N(CCCN(C)C[C@H]1Cc3cc(OC)c(OC)cc31)CC2 [Ivabradine HCl] | 0.683
36 | CC1(C)S[C@@H]2[C@H](NC(=O)[C@H](NC(=O)N3CCN(S(C)(=O)=O)C3=O)c3ccccc3)C(=O)N2[C@H]1C(=O)O [Mezlocillin Sodium] | -0.00277
37 | Nc1ccc(S(=O)(=O)Nc2ccccn2)cc1 [Sulfapyridine] | -0.172
38 | CN1C(C(=O)Nc2ccccn2)=C(O)c2sc(Cl)cc2S1(=O)=O [Lornoxicam] | 0.0456
39 | Nc1ccccc1NC(=O)c1ccc(CNc2nccc(-c3cccnc3)n2)cc1 [Mocetinostat (MGCD0103)] | -6.23
40 | CC12CC3CC(C)(C1)CC(N)(C3)C2 [Memantine HCl] | 2.13
41 | O=[N+]([O-])c1ccc(O)c2ncccc12 [Nitroxoline] | 0.164
42 | CN1CCC(=C2c3ccccc3C=Cc3ccccc32)CC1 [Cyproheptadine HCl] | -1.09
43 | Cc1c(OCC(F)(F)F)ccnc1C[S@@+]([O-])c1nc2ccccc2[nH]1 [Dexlansoprazole] | 0.985
44 | O=C1Nc2ccc(Cl)cc2[C@@](C#CC2CC2)(C(F)(F)F)O1 [Efavirenz] | -0.514
45 | O=C1CC[C@@H](C(=O)N2CSC[C@H]2C(=O)O)N1 [Pidotimod] ([pGlu]-[Thz]-OH) | 0.884
